Consider one substance from patent US10624965B2 (SUSAVION BIOSCIENCES, INC., priority 2014, dated 2020).

HELM strings list residues between dots; [ac] is acetyl, [am] amide, other brackets name non-standard units. A value given as a limit tells only on which side of the number the result lay.

The nature of this data set: peptide synthesis. Conditions: whole synthesis.

Turning to “PEPTIDE1{V.Q.A.T.Q.S.N.Q.H.T.P.R.G.G.G.S.K.K.[am]}|PEPTIDE2{V.Q.A.T.Q.S.N.Q.H.T.P.R.G.G.G.S}|PEPTIDE3{V.Q.A.T.Q.S.N.Q.H.T.P.R.G.G.G.S.K}|PEPTIDE4{V.Q.A.T.Q.S.N.Q.H.T.P.R.G.G.G.S}$PEPTIDE1,PEPTIDE2,17:R3-16:R2|PEPTIDE1,PEPTIDE3,18:R3-17:R2|PEPTIDE3,PEPTIDE4,17:R3-16:R2$$$V2.0”, the “final HPLC purity” value was greater than 95%.
